Laboratory results published in PubChem BioAssay (Tox21).
These results got no clear call from the source, so the numbers are uncertain. Unless noted, calls come from the whole dose curve; as a rule, active = well fitted curve in the direction sought with a large enough effect in the repeat runs; inconclusive = weak or mixed curves; inactive = no such curve, though single readings can be large; an effect the other way counts as inactive or inconclusive.

The chains behind the UniProt entries cited, without tags or fusion partners.
UniProt P11473, whole entry: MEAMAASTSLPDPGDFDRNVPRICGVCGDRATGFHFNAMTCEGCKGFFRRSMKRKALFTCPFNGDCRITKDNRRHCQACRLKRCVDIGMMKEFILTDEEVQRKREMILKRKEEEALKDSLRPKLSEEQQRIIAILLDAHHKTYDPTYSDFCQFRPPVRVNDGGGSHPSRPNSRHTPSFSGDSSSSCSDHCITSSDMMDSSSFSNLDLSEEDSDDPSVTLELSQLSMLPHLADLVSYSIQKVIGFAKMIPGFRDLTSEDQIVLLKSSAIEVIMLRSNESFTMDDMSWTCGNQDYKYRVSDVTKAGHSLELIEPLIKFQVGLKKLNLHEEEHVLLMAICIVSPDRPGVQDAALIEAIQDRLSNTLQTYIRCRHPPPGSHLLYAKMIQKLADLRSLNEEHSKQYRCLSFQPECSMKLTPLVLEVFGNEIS
UniProt Q92731, whole entry: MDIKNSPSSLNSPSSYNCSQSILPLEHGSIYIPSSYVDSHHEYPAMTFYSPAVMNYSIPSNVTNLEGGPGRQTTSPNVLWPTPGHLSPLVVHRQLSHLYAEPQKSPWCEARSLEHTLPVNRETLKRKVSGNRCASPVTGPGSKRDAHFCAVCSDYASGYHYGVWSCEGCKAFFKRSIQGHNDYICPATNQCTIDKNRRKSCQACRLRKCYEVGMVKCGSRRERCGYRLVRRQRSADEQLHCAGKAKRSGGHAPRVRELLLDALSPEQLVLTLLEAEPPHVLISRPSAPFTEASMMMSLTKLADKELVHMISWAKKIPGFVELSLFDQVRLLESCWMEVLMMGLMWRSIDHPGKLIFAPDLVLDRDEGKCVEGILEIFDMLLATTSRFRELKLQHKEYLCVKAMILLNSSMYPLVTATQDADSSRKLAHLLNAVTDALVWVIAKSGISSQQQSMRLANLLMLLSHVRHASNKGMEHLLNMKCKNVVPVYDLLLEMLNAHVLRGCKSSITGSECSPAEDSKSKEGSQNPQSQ
UniProt P37231, whole entry: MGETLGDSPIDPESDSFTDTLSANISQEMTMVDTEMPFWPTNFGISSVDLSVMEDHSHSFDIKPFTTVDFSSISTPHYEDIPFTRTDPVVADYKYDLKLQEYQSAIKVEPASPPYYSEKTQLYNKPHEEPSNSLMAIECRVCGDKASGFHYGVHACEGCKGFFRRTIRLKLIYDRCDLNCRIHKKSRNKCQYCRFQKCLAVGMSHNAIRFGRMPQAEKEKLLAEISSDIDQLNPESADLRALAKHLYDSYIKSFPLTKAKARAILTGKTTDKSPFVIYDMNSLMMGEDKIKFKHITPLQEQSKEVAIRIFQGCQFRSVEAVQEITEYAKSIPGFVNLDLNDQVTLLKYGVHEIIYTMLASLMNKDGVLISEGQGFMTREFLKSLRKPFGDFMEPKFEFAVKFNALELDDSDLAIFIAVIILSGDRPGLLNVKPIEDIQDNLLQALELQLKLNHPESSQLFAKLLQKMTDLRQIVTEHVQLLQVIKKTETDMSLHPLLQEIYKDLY
UniProt O75469, whole entry: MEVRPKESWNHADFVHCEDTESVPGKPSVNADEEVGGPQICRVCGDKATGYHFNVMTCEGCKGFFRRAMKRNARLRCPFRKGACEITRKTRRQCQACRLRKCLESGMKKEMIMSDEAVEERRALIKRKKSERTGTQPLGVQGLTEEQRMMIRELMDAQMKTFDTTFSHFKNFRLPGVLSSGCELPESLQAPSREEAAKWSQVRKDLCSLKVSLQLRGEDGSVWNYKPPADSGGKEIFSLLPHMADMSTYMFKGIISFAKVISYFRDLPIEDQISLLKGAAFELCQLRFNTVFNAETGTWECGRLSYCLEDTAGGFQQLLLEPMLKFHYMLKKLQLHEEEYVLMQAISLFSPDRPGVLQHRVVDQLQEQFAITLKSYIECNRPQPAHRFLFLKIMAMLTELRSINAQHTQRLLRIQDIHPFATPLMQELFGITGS
UniProt P10635, whole entry: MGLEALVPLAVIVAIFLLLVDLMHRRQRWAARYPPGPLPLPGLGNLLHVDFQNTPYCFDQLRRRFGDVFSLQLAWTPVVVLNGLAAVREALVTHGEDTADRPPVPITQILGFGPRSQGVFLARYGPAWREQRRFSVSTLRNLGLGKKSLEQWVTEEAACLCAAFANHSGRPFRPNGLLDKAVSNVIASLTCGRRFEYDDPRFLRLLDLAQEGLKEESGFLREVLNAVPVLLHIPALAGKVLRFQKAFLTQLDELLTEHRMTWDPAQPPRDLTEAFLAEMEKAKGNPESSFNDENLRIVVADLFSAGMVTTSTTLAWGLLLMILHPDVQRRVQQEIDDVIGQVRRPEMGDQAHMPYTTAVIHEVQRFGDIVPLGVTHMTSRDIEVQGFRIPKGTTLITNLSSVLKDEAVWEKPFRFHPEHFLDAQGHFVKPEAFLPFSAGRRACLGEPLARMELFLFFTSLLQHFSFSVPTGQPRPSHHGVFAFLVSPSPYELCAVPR

Key:
[1] = qHTS assay for small molecule agonists of the p53 signaling pathway (AID 651631; calls by dose curve; note: potency is the fitted concentration of half-maximal effect; nearly all actives have a fitted effect of over 15% in size); details: HCT-116 p53RE-bla reporter, beta-lactamase FRET ratio, 16 h
How it was run: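 Testing took place in human colorectal HCT-116 cells with stable p53RE-driven beta-lactamase. After 16 h of compound exposure at 37 °C, a FRET substrate was added and fluorescence recorded 2 h later.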

[2] = qHTS assay for small molecule disruptors of the mitochondrial membrane potential (AID 720635); details: HepG2 mitochondrial membrane potential, Mito-MPS dye ratio; ratio activity, negative = MMP loss: at 83.2 µM (top of the series) unless noted; note: potency is the fitted concentration of half-maximal effect
How it was run: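 Mitochondrial membrane potential tracked with Mito-MPS dye, red aggregates (ex 540/em 590 nm) against green monomers (ex 490/em 535 nm). Compound treatment 1 hr at 37C, dye 30 min in HepG2.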

[3] = target: Vitamin D3 receptor (Homo sapiens) (UniProt P11473); experiment: qHTS assay to identify small molecule antagonists of the vitamin D receptor (VDR) signaling pathway (AID 743223; active = well fitted inhibition curve with a large enough effect in the signal ratio in the repeat runs, not every such curve was filed as active; inconclusive = weak or mixed curves, or effect the other way; inactive = no such curve, though single readings can be large or run the other way; the % refers to the signal ratio; note: % is set by controls: 0 for no effect and ±100 for the full control effect); details: VDR-UAS-bla HEK293T, beta-lactamase FRET ratio, 16 h; activity change, negative = inhibition: at 78.8 µM (top of the series) unless noted
How it was run: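 Quantitative HTS in VDR-bla reporter cells stimulated with 1alpha,25-dihydroxyvitamin D3, 3 nM final. Compound exposure 16 h, 37C, 5% CO2. Read-out: beta-lactamase FRET substrate fluorescence, 2 h RT.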

[4] = target: Nuclear receptor ROR-gamma (Homo sapiens) (UniProt P51449); experiment: qHTS assay to identify small molecule antagonists of the retinoid-related orphan receptor gamma (ROR-gamma) signaling pathway (AID 1159521; note: potency is the fitted concentration of half-maximal effect; nearly all actives have a fitted effect of over 50% in size); details: Tet-on RORgamma CHO cells, RORE-luciferase, 16 h
[5] = target: Estrogen receptor beta (Homo sapiens) (UniProt Q92731); experiment: qHTS assay to identify small molecule agonists of the estrogen receptor beta (ER-beta) signaling pathway (AID 1259377; active = well fitted activation curve with a large enough effect in the signal ratio in the repeat runs, not every such curve was filed as active; inconclusive = weak or mixed curves, or effect the other way; the % refers to the signal ratio; note: % is set by controls: 0 for no effect and ±100 for the full control effect); details: ER-beta-UAS-bla HEK293T, beta-lactamase FRET ratio, 16 h; activation: at 92.4 µM (top of the series)
[6] = qHTS assay to identify small molecule antagonists of the progesterone receptor (PR) signaling pathway - cell viability counter screen (AID 1346798); details: PR-UAS-bla HEK293T viability, CellTiter-Glo luminescence, 16 h; note: potency is the fitted concentration of half-maximal effect; nearly all actives have a fitted effect of over 50% in size
How it was run: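 CellTiter-Glo luminescence; PR-UAS-bla HEK293T, 3,000 cells/well; compound + R5020, 16 hr, 37C/5% CO2; 30 min RT before read.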

[7] = qHTS assay for identifying genotoxic compounds that show differential cytotoxicity against isogenic chicken DT40 cell lines with known DNA damage response pathways - wild type cell line (AID 743012); details: DT40 wild type chicken cells viability, CellTiter-Glo, 40 h; note: potency is the fitted concentration of half-maximal effect; nearly all actives have a fitted effect of over 60% in size
How it was run: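 First, wild type DT40 cells were plated at 300 per well and equilibrated about 0.5 h at 37 C/5% CO2. Next, compounds in DMSO were added and exposure lasted 40 h. Finally, CellTiter-Glo was added for 30 min at room temperature and luminescence recorded.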

[8] = qHTS assay to identify small molecule antagonists of the estrogen receptor alpha (ER-alpha) signaling pathway - cell viability counter screen (AID 743074; calls by dose curve;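 note: HEK293 cells carrying ER-alpha-UAS-bla reporter stimulated with 17beta-estradiol; potency is the fitted concentration of half-maximal effect; nearly all actives have a fitted effect of over 45% in size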); details: ERalpha-bla HEK293 viability, CellTiter-Glo luminescence, 18 h
[9] = target: Peroxisome proliferator-activated receptor gamma (Homo sapiens) (UniProt P37231); experiment: qHTS assay to identify small molecule agonists of the peroxisome proliferator-activated receptor gamma (PPARg) signaling pathway (AID 743094; active = well fitted activation curve with a large enough effect in the signal ratio in the repeat runs, not every such curve was filed as active; inconclusive = weak or mixed curves, or effect the other way; inactive = no such curve, though single readings can be large or run the other way; the % refers to the signal ratio; note: % is set by controls: 0 for no effect and ±100 for the full control effect); details: HEK293H PPARg-UAS-bla, beta-lactamase FRET ratio, 17 h; activation: at 57 µM (top of the series) unless noted
How it was run: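 Compounds dissolved in DMSO were added to PPARg UAS-bla HEK293H cells for 17 h at 37C, and reporter expression was quantified by fluorescence intensity after 1 h with LiveBLAzer B/G FRET substrate.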

[10] = qHTS assay to identify small molecule agonists of the peroxisome proliferator-activated receptor delta (PPARd) signaling pathway - cell viability counter screen (AID 743211); details: PPARd-bla HEK293H viability, CellTiter-Glo luminescence, 17 h; note: potency is the fitted concentration of half-maximal effect; nearly all actives have a fitted effect of over 55% in size
How it was run: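 Tox21 library compounds, delivered in DMSO, were incubated 17 h with PPARd-bla HEK293H cells; cytotoxicity was taken from CellTiter-Glo luminescence read 30 min after reagent addition.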

[11] = qHTS assay to identify small molecule antagonists of the peroxisome proliferator-activated receptor delta (PPARd) signaling pathway - cell viability counter screen (AID 743213); details: PPARd-bla HEK293H viability, CellTiter-Glo luminescence, 17 h; viability change, negative = cytotoxic: at 62 µM (top of the series); note: potency is the fitted concentration of half-maximal effect; nearly all actives have a fitted effect of over 50% in size
How it was run: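 PPARd-bla HEK293H cells (3000/well) got compound plus 300 nM L165041 agonist for 17 h at 37 C. Viability in the same wells came from CellTiter-Glo luminescence after 30 min at room temperature.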

[12] = qHTS assay to identify small molecule agonists of the farnesoid-X-receptor (FXR) signaling pathway - cell viability counter screen (AID 743218); details: FXR-bla HEK293T viability, CellTiter-Glo luminescence, 16 h; note: potency is the fitted concentration of half-maximal effect; nearly all actives have a fitted effect of over 45% in size
How it was run: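 Parallel cytotoxicity test: compound-treated (16 h, 37 C) HEK 293T FXR-bla reporter cells were lysed with CellTiter-Glo and luminescence recorded.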

[13] = qHTS assay to identify small molecule agonists of the NFkB signaling pathway (AID 1159509; active = well fitted curve in the direction sought with a large enough effect in the signal ratio in the repeat runs, not every such curve was filed as active; inconclusive = weak or mixed curves, or a change in a side signal; inactive = no such curve, though single readings can be large or run the other way; the % refers to the signal ratio; note: potency is the fitted concentration of half-maximal effect); details: NFkB-bla ME-180 cells, beta-lactamase FRET ratio, 5 h
How it was run: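 ME-180 NFkB-bla, 2,000 cells/well, overnight plating; cpd pinned in DMSO, 5 h 37 C; B/G FRET substrate 1.5 h RT; ex 405, em 460/530 nm.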

[14] = qHTS assay to identify small molecule agonists of the estrogen related receptor signaling pathway with the pleiotropic PPARgamma coactivator (PGC) from Tox21 10K library (AID 1224842); details: PGC/ERR reporter cell line, luciferase ONE-Glo, 18 h; note: potency is the fitted concentration of half-maximal effect; nearly all actives have a fitted effect of over 15% in size
How it was run: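 Luminescence from One-Glo (30 min, room temperature) measured after PGC/ERR cells had 18 h at 37 C with pinned compound (23 nL in DMSO). Cells had been seeded at 2,000 per well and pre-incubated 6 h.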

[15] = qHTS assay to identify small molecule agonists of H2AX (AID 1224845; active = well fitted activation curve with a large enough effect in the signal ratio in the repeat runs, not every such curve was filed as active; inconclusive = weak or mixed curves; the % refers to the signal ratio; note: % is set by controls: 0 for no effect and ±100 for the full control effect); details: CHO-K1 phospho-H2AX Ser139 HTRF, 3 h; activation (H2AX phosphorylation): at 154 µM (top of the series)
How it was run: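 Phospho-H2AX Ser139 measured by HTRF (ex 320 nm; em 665 and 620 nm) after 24 hr antibody incubation. Compounds, 15 concentrations, 0.76% DMSO, were applied to CHO-K1 cells for 3hr at 37C before lysis.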

[16] = qHTS assay to identify small molecule agonists of the sonic hedgehog signaling (Shh) pathway - cell viability counter screen (AID 1259366); details: NIH/3T3 Gli1-Luc viability, CellTiter-Fluor, 24 h; note: potency is the fitted concentration of half-maximal effect; nearly all actives have a fitted effect of over 50% in size
How it was run: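 Compounds in DMSO were pin-transferred onto 3T3 Gli1-Luc cells that had settled 4hr; plates then stood 24hr at 37C and 5% CO2. One hour before the end, CellTiter-Fluor was added and fluorescence recorded.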

[17] = qHTS assay to identify small molecule antagonists of the sonic hedgehog signaling (Shh) pathway (AID 1259369; calls by dose curve; note: potency is the fitted concentration of half-maximal effect; nearly all actives have a fitted effect of over 45% in size); details: NIH/3T3 Gli1-Luc reporter, Shh antagonist, luminescence 24 h
How it was run: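 For antagonist detection, the reporter line received test compounds together with conditioned medium, incubated 24hr at 37 C, 5% CO2, then luminescence was recorded following 30min room-temperature luciferase reagent incubation.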

[18] = qHTS assay to identify small molecule agonists of the estrogen receptor beta (ER-beta) signaling pathway - cell viability counter screen (AID 1259380); details: ER-beta-bla HEK293T viability, CellTiter-Glo luminescence, 16 h; note: potency is the fitted concentration of half-maximal effect; nearly all actives have a fitted effect of over 30% in size
How it was run: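 CellTiter-Glo read, 30 min RT, same wells as bla assay; cells ER-beta-UAS-bla HEK293T; 16 hr compound, 37C; medium 2% charcoal-stripped FBS.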

[19] = qHTS assay to identify small molecule agonists of the progesterone receptor (PR) signaling pathway - cell viability counter screen (AID 1346799; calls by dose curve; note: potency is the fitted concentration of half-maximal effect; nearly all actives have a fitted effect of over 45% in size); details: PR-UAS-bla HEK293T viability, CellTiter-Glo luminescence, 16 h
How it was run: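 In parallel with the beta-lactamase readout, cytotoxicity toward PR-UAS-bla HEK293T cells was measured by CellTiter-Glo luminescence following 16 hr compound incubation in 2% charcoal-stripped FBS medium.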

[20] = target: Nuclear receptor subfamily 1 group I member 2 (Homo sapiens) (UniProt O75469); experiment: Human pregnane X receptor (PXR) small molecule agonists, qHTS assay (AID 1346982); details: PXR-Luc HepG2, CYP3A4 luciferase reporter, 24 h; note: potency is the fitted concentration of half-maximal effect; nearly all actives have a fitted effect of over 35% in size
How it was run: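 Compound-induced hPXR transactivation of a CYP3A4 luciferase reporter was scored in HepG2 PXR-Luc cells over 24 hr at 37 C, 5% CO2, by luminescence.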

[21] = target: Cytochrome P450 2D6 (Homo sapiens) (UniProt P10635); experiment: Cytochrome P450 Family 2 Subfamily D Member 6 (CYP2D6) small molecule antagonists: luciferase reporter qHTS assay (AID 1671196); details: P450-Glo CYP2D6 enzyme assay, luciferin luminescence, 1 h
How it was run: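 Each well received CYP2D6 with its proluciferin substrate and chemical, sat 10 min, then got NADPH regeneration solution for 1 h at room temperature. Luminescence in RLU served as the activity measure.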

CP(=O)(O)OCCC[Si](O)(O)O
inconclusive: Potency [1] 0.243 µM | Potency [2] 2.17 µM | activity change, negative = inhibition [3] 3.98% [at 61 µM] | Potency [4] 486 nM | activation [5] 13.2% | Potency [6] 969 nM

CCN(CC)CCCl
inconclusive: Potency [1] 55.3 µM | Potency [2] 0.983 µM | Potency [7] 69.6 µM | Potency [8] 62.6 µM | activation [9] -10.9% [at 78.9 µM] | Potency [10] 49.7 µM | Potency [11] 8.84 µM | Potency [12] 39.5 µM | Potency [13] 19.8 µM | Potency [14] 62 µM | activation (H2AX phosphorylation) [15] 8.93% | Potency [16] 49.2 µM | Potency [17] 11 µM | Potency [18] 69.6 µM | Potency [19] 69.6 µM | Potency [20] 62 µM | Potency [21] 36.1 µM
